PubChem BioAssay AID686938, Drosophila RNAi Screening Center, 2013
Assay: 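Looking for CRAC channel components and the factors controlling them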 (primary screen). System: Drosophila S2R+ cells. Reagents: long dsRNA against Drosophila genes, about 0.25 µg dsRNA per well, roughly 10,000 cells. Time to read-out: 5 days of knock-down before the calcium assay. Challenge: thapsigargin (SERCA pump blocker) to empty calcium stores; entry signal taken 4 min after adding it. Measurement: 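Per-well fluo-4 fluorescence in two replicates, unnormalised, measured in resting cells and 4 min after store depletion by the SERCA blocker thapsigargin; ratio of the two present in few wells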. Reading the numbers: calcium entry signal: higher = stronger calcium signal after store depletion; resting calcium signal: higher = higher resting calcium signal. Units: calcium entry signal in fluorescence units; resting calcium signal in fluorescence units. Call rule: 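Hit if the duplicate-averaged plate z-score for entry over resting signal is under −3; wells with weak total dye signal (Fmax z < −2) or more than 5 off-targets removed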. Meaning of the calls: active = strongly reduced calcium entry; inactive = no strong reduction.
The screen tested about 23,000 reagents; this is an unselected part of those that have a named target and a result. In the full data, 75 (0.33%) got an active call. 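Raw plate signals without normalisation; calls rest on plate z-scores that were not deposited; ratio present for only 364 wells.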 The record does not give: the dose of the treatment.

Which result is listed for CG9662 [DRSC00723]?
calcium entry signal, replicate 1: 2.53e7; calcium entry signal, replicate 2: 2.37e7; resting calcium signal, replicate 1: 1.22e7; resting calcium signal, replicate 2: 1.12e7; Outcome: inactive

How did the screen score Ilp2 [DRSC10968]?
calcium entry signal, replicate 1: 5.20e7; calcium entry signal, replicate 2: 3.93e7; resting calcium signal, replicate 1: 2.82e7; resting calcium signal, replicate 2: 1.61e7; Outcome: inactive

What did the screen give for meso18E [DRSC20351]?
calcium entry signal, replicate 1: 3.29e7; calcium entry signal, replicate 2: 2.94e7; resting calcium signal, replicate 1: 1.65e7; resting calcium signal, replicate 2: 1.41e7; Outcome: inactive

What did the screen give for Slc25A46a [DRSC20125]?
calcium entry signal, replicate 1: 4.16e7; calcium entry signal, replicate 2: 4.81e7; resting calcium signal, replicate 1: 1.94e7; resting calcium signal, replicate 2: 2.22e7; Outcome: inactive

For Aduk [DRSC16451], what was measured?
calcium entry signal, replicate 1: 2.08e7; calcium entry signal, replicate 2: 2.38e7; resting calcium signal, replicate 1: 1.14e7; resting calcium signal, replicate 2: 1.22e7; Outcome: inactive

With CG15130 [DRSC02430], what does the deposit list?
calcium entry signal, replicate 1: 5.10e7; calcium entry signal, replicate 2: 4.86e7; resting calcium signal, replicate 1: 2.45e7; resting calcium signal, replicate 2: 2.10e7; Outcome: inactive

For Trf4 [DRSC00729], how do the results read?
calcium entry signal, replicate 1: 3.95e7; calcium entry signal, replicate 2: 3.79e7; resting calcium signal, replicate 1: 1.82e7; resting calcium signal, replicate 2: 1.67e7; Outcome: inactive

For CG14102 [DRSC10103], what was measured?
calcium entry signal, replicate 1: 3.19e7; calcium entry signal, replicate 2: 4.93e7; resting calcium signal, replicate 1: 1.52e7; resting calcium signal, replicate 2: 2.19e7; Outcome: inactive

With CG7432 [DRSC16243], how do the results read?
calcium entry signal, replicate 1: 4.69e7; calcium entry signal, replicate 2: 4.51e7; resting calcium signal, replicate 1: 5.18e7; resting calcium signal, replicate 2: 1.82e7; Outcome: inactive

Looked up above.
Ilp2 [DRSC10968], Outcome: inactive
CG9662 [DRSC00723], calcium entry signal, replicate 2 = 2.37e7

Additional entries follow.
What is on record for dlp [DRSC10281]?
calcium entry signal, replicate 1: 3.64e7; calcium entry signal, replicate 2: 2.27e7; resting calcium signal, replicate 1: 2.92e7; resting calcium signal, replicate 2: 1.58e7; Outcome: inactive

How did the screen score dlp [DRSC10472]?
calcium entry signal, replicate 1: 4.25e7; calcium entry signal, replicate 2: 5.49e7; resting calcium signal, replicate 1: 1.82e7; resting calcium signal, replicate 2: 2.33e7; Outcome: inactive

How did the screen score lms [DRSC06387]?
calcium entry signal, replicate 1: 2.09e7; calcium entry signal, replicate 2: 3.09e7; resting calcium signal, replicate 1: 1.14e7; resting calcium signal, replicate 2: 1.39e7; Outcome: inactive

With Cpr64Ab [DRSC08461], what was measured?
calcium entry signal, replicate 1: 3.56e7; calcium entry signal, replicate 2: 3.15e7; resting calcium signal, replicate 1: 1.85e7; resting calcium signal, replicate 2: 1.54e7; Outcome: inactive

What did the screen give for CG14186 [DRSC10185]?
calcium entry signal, replicate 1: 3.42e7; calcium entry signal, replicate 2: 4.30e7; resting calcium signal, replicate 1: 1.49e7; resting calcium signal, replicate 2: 2.78e7; Outcome: inactive

What is on record for CSN4 [DRSC07350]?
calcium entry signal, replicate 1: 2.68e7; calcium entry signal, replicate 2: 2.42e7; resting calcium signal, replicate 1: 1.30e7; resting calcium signal, replicate 2: 1.37e7; Outcome: inactive

Which result is listed for CG31862 [DRSC01245]?
calcium entry signal, replicate 1: 4.68e7; calcium entry signal, replicate 2: 4.14e7; resting calcium signal, replicate 1: 2.52e7; resting calcium signal, replicate 2: 1.90e7; Outcome: inactive

What did the screen give for CG31431 [DRSC14589]?
calcium entry signal, replicate 1: 3.75e7; calcium entry signal, replicate 2: 4.12e7; resting calcium signal, replicate 1: 5.58e7; resting calcium signal, replicate 2: 1.85e7; Outcome: inactive

With CG6674 [DRSC10692], how do the results read?
calcium entry signal, replicate 1: 5.14e7; calcium entry signal, replicate 2: 3.57e7; resting calcium signal, replicate 1: 3.20e7; resting calcium signal, replicate 2: 1.53e7; Outcome: inactive

For vig [DRSC03630], what was measured?
calcium entry signal, replicate 1: 3.47e7; calcium entry signal, replicate 2: 5.57e7; resting calcium signal, replicate 1: 1.53e7; resting calcium signal, replicate 2: 2.41e7; Outcome: inactive

With vig [DRSC03631], what does the deposit list?
calcium entry signal, replicate 1: 4.42e7; resting calcium signal, replicate 1: 2.16e7; Outcome: inactive

How did the screen score vig [DRSC21672]?
calcium entry signal, replicate 1: 4.60e7; calcium entry signal, replicate 2: 3.88e7; resting calcium signal, replicate 1: 2.81e7; resting calcium signal, replicate 2: 1.80e7; Outcome: inactive
